US20230057012A1, “TGFB INHIBITORS AND USE THEREOF” (Scholar Rock, Inc., priority 2020, published 2023)
No constants are given. Whether binding was seen depends on the method and setting.

Columns and labels:
mLTBP1-TGFb3 (mouse) = assay: ELISA, purified hIgG4 titrated from about 0.002 to 100 nM, readout RLU, panel mLTBP1-TGFb3
hLTBP1-TGFb3 (human) = assay: ELISA, purified hIgG4 titrated from about 0.002 to 100 nM, readout RLU, panel hLTBP1-TGFb3

B1: Ab46 hIgG4 (antibody, V domains shown)
VH: EVQLLESGGGLVQPGGSLRLSCAASGFTFADYAMTWVRQAPGKGLEWVSAISGSGAATYFADSVKGRFTISRDNSKNTLYLQMNSLRAEDTAVYYCARVSSGHWDYDYWGQGTLVTVSS
VL: DIQLTQSPSSLSASVGDRVTITCRASQSISSYLNWYQQKPGKAPKLLIYAASGLESGVPSRFSGSGSGTDFTLTISSLQPEDFATYYCQQTYGVPLTFGGGTKVEIK
binding (mLTBP1-TGFb3 (mouse)): no binding (tested: 100 nM) | binding (hLTBP1-TGFb3 (human)): no binding (tested: 100 nM)
